Assay results: PMC6356446
These are yes or no findings as the source states them, for the method shown. Some binding calls cover weakened binding; strength is not graded here.

Protein sequences, listed by entry. Tags and fused reporters are not part of them. Residues count along the entry.
UniProt P08581, residues 25-1390: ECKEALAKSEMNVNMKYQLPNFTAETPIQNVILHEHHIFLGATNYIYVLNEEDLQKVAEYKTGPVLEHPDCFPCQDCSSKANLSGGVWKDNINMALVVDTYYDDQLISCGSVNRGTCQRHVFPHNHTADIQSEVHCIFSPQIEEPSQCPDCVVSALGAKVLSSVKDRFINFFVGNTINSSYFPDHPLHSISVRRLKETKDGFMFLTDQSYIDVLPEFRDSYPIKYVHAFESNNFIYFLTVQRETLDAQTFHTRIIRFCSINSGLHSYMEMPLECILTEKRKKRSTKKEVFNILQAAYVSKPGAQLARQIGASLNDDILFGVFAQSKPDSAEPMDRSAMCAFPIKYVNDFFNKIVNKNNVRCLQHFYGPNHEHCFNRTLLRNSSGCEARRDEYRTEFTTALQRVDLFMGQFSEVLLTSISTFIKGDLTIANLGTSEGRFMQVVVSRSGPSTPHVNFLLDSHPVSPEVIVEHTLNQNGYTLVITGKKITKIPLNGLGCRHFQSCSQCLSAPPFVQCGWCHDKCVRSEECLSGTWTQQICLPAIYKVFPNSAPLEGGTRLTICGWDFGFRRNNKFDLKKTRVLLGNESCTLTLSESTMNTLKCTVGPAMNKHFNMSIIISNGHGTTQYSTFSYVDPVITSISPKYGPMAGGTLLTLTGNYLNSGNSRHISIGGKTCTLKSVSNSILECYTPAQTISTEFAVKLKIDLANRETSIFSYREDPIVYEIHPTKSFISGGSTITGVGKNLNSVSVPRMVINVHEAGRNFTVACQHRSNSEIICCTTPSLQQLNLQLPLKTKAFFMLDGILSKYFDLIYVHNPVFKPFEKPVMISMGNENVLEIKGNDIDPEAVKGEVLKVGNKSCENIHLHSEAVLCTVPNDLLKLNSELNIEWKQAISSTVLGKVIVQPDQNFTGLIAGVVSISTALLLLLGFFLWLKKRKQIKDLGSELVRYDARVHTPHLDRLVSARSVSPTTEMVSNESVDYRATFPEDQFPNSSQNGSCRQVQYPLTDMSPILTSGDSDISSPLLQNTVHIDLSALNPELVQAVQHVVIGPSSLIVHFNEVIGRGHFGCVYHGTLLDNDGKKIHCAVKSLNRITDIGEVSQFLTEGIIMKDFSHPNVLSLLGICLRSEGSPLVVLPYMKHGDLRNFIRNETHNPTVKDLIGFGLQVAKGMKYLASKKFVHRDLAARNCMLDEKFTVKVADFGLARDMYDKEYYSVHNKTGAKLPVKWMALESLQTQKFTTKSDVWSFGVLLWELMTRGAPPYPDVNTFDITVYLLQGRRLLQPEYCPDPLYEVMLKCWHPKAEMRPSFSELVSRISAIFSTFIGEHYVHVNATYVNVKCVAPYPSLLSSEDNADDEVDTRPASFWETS
UniProt P14210, residues 32-728: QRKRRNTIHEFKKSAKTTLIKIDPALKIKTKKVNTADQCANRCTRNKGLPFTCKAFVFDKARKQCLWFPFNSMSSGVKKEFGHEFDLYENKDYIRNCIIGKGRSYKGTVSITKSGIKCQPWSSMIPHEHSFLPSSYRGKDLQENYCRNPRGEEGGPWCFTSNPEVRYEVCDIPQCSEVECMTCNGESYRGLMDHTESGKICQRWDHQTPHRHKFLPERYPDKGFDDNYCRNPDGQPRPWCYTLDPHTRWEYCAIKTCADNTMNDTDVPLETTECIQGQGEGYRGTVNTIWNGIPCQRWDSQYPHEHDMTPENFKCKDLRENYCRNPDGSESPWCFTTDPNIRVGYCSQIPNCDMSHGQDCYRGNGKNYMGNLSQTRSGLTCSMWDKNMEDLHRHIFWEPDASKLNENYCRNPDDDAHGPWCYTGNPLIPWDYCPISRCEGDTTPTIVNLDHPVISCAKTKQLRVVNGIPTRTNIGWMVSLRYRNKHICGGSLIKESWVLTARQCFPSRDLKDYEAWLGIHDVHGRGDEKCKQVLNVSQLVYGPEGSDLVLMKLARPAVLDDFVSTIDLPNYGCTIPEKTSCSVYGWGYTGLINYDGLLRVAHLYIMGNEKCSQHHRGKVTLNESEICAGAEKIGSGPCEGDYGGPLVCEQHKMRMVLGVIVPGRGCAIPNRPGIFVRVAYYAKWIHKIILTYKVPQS

Target: c-Met (human (endogenous in HCC413)) (UniProt P08581)
Assay: flow cytometry on cells; HCC413 cells treated with EGF-FITC or HGF-FITC alone or with unlabeled LZ-8 for 15 min; fixed; relative mean fluorescence intensity; only the binder purified

binding: binds
Substance: FITC-labeled HGF (from UniProt P14210 32-728) (ligand)
